Data taken from PMC4284759.
Results are given in words; binding and its absence hold for the method and conditions named. Binding seen in cells or lysates may run through a third protein. Some entries that bind do so weakly or less than the wild type.

Sequences of proteins named here, by UniProt entry; tags and fusion partners are left off.
UniProt Q8N122: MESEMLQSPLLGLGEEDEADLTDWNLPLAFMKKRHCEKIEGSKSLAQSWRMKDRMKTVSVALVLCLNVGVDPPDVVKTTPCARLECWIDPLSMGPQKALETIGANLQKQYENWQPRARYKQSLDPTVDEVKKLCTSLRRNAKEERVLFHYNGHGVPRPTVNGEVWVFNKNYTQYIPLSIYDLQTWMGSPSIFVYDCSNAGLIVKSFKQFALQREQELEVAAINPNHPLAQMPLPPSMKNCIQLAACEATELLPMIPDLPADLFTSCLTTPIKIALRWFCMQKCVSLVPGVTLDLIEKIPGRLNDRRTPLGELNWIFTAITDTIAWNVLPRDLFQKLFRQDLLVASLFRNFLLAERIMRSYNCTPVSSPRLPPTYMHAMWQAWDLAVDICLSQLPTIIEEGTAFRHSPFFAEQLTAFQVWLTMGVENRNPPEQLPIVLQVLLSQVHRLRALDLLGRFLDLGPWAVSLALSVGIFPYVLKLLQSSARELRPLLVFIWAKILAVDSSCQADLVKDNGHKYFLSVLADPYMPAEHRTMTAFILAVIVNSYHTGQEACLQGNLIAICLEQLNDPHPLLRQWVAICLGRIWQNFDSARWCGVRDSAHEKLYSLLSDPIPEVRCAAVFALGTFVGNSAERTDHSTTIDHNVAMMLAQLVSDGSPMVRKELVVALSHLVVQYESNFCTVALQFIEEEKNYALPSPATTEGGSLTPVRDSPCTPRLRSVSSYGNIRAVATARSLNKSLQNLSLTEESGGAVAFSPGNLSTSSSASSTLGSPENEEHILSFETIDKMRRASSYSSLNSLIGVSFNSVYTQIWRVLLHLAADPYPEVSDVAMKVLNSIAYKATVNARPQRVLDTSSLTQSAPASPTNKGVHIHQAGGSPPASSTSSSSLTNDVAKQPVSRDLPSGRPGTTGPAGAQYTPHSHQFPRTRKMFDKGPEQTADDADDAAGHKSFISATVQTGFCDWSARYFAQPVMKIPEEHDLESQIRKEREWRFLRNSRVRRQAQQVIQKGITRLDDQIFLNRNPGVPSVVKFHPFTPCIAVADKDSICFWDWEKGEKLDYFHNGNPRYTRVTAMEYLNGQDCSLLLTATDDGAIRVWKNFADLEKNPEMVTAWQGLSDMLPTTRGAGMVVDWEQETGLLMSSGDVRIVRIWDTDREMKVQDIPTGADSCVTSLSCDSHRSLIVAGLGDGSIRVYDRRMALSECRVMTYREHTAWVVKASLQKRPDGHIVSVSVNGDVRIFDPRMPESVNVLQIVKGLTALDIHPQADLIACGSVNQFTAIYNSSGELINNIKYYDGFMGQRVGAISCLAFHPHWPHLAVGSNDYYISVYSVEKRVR
UniProt Q6R327: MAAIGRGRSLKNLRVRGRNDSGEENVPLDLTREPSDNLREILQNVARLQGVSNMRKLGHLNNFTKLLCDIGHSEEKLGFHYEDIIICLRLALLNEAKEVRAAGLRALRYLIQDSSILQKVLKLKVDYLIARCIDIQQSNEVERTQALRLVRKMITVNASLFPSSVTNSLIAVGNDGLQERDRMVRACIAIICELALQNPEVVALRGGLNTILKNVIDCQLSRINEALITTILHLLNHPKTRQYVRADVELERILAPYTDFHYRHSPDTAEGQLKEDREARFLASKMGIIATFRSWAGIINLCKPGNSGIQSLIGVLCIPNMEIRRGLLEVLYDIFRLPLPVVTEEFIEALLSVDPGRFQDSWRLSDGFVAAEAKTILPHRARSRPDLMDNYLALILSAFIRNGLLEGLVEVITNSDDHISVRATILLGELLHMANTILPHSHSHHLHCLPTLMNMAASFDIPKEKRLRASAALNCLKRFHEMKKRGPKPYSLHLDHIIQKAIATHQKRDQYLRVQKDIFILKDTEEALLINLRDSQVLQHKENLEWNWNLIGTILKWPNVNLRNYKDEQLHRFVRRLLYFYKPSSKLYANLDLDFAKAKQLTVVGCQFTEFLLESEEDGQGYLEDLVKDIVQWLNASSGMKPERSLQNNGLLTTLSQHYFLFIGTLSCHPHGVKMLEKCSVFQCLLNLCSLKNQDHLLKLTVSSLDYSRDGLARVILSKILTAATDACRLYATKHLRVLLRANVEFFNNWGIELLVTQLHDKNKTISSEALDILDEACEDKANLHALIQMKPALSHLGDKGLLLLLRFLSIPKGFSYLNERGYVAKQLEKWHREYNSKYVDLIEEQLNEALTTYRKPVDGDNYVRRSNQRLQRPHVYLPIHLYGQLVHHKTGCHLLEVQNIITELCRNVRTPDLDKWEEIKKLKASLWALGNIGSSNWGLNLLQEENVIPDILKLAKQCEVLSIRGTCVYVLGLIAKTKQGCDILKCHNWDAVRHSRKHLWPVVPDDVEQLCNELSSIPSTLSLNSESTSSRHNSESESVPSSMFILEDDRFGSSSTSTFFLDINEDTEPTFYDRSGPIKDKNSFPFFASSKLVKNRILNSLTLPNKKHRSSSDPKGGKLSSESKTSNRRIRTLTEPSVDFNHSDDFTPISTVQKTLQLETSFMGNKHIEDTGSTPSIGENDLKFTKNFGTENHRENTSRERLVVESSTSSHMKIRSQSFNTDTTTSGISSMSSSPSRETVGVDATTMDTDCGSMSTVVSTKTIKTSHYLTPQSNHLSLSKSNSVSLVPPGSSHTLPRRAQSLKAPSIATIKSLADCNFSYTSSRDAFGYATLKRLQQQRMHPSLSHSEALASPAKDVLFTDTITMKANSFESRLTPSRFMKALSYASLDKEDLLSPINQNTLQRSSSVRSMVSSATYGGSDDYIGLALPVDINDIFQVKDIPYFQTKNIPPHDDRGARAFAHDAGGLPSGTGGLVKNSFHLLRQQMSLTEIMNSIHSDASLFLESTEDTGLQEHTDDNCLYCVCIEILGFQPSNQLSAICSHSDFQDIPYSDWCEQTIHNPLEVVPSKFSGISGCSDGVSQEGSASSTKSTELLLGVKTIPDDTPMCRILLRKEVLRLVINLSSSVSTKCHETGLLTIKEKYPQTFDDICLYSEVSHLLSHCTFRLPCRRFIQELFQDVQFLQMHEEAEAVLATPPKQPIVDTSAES

Columns and labels:
[1] = target: T1, enhancer of mRNA decapping protein 4 (Edc4) (human (endogenous in CCRF-CEM)) (UniProt Q6P2E9); assay: co-IP; endogenous proteins from CCRF-CEM lysate in 0.3% CHAPS buffer; raptor, Edc4 or rictor antibody with Dynabeads G, overnight at 4 °C; immunoblot of the elutes; mock control without antibody; also DMSO-treated cells
T1 sequence: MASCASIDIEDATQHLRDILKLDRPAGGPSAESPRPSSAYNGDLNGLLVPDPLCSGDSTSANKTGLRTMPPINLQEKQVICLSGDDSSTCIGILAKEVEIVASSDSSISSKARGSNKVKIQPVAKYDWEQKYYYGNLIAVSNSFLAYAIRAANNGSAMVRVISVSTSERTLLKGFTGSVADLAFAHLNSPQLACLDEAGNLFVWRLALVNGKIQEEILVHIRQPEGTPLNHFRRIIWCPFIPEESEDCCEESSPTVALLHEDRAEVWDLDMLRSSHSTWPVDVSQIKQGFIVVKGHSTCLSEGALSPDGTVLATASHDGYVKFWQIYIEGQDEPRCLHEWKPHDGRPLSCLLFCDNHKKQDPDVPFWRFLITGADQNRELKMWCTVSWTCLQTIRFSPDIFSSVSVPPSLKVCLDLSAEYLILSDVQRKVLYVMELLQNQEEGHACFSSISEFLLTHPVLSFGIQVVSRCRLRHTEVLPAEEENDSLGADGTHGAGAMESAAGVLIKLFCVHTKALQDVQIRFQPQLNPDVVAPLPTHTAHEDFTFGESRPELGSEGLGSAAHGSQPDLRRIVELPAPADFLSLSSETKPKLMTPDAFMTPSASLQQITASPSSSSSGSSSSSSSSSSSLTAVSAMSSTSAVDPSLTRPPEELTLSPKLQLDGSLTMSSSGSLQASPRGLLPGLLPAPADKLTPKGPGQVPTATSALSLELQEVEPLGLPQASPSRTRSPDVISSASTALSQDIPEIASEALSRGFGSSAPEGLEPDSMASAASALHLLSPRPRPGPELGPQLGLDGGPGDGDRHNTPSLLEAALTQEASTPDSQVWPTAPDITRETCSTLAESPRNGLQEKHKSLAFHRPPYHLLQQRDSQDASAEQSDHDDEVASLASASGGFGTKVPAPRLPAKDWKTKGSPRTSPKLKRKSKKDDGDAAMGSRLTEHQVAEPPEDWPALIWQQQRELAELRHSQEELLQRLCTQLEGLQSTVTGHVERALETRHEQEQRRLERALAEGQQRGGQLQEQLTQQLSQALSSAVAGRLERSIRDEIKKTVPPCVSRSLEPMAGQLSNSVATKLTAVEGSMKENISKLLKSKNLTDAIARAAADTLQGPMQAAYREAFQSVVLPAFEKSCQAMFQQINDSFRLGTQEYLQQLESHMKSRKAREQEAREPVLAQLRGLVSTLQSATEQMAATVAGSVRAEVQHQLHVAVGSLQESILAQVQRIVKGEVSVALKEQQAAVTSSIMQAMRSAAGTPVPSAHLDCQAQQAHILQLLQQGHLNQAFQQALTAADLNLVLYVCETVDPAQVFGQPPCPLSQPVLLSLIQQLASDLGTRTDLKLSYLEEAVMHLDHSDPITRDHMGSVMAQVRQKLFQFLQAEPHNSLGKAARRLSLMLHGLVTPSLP

[2] = target: regulatory associated protein of mTOR (raptor) (human (endogenous in CCRF-CEM)) (UniProt Q8N122); assay: co-IP; CCRF-CEM cells treated with rapamycin for one hour, lysed with CHAPS buffer; endogenous raptor IP, immunoblot for Edc4
[3] = target: rapamycin insensitive companion of mTOR (rictor) (human (endogenous in CCRF-CEM)) (UniProt Q6R327); assay: co-IP; endogenous proteins from CCRF-CEM lysate in 0.3% CHAPS buffer; raptor, Edc4 or rictor antibody with Dynabeads G, overnight at 4 °C; immunoblot of the elutes; mock control without antibody; also DMSO-treated cells
[4] = target: regulatory associated protein of mTOR (raptor) (human (endogenous in CCRF-CEM)) (UniProt Q8N122); assay: as above
[5] = target: myc-tag raptor (UniProt Q8N122); assay: co-IP; CCRF-CEM cells transiently transfected with myc-tag raptor pRK5 plasmid (48 h), lysed in 0.3% CHAPS buffer; myc-tag monoclonal antibody conjugated beads overnight at 4 °C; immunoblot for endogenous Edc4

regulatory associated protein of mTOR (raptor) (from UniProt Q8N122 1-1335)
binding [1]: binds

B1: enhancer of mRNA decapping protein 4 (Edc4) (protein, UniProt Q6P2E9 1-1401)
chain: T1 sequence
binding [2]: binds weakly
binding [3]: no binding
binding [4]: binds
binding [5]: binds
